Measurements: PubChem BioAssay AID624291 (National Center for Advancing Translational Sciences (NCATS), 2012)
Hit rate of the full screen: of about 350,000 compounds, about 220 (0.063%) were called active. The shares of active, inactive and inconclusive entries below differ from those in the screen. The call rests on the fitted dose curve; in most records, active means well fitted activation curve with a large enough effect; inconclusive means small, poorly fitted or top-dose-only effect; inactive means no such curve, though single readings can be large or run the other way. Where the call is inconclusive, the potency comes from a doubtful curve fit.

test: qHTS for Activators of Integrin-Mediated Alleviation for Muscular Dystrophy; conditions: alpha7betagal myoblasts, beta-gal FDG fluorescence, 48 h; activation: at 38.3 µM (top of the series); further: nearly all actives have a fitted effect of over 60% in size;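 on activation: 100% = response of the positive control SU9516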
Method in brief: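 Alpha7betagal+/- myoblasts (passage 13) were plated 16-24 hr, then exposed to compounds (1:260 dilution of DMSO stock) for 48 hours at 37C. After MPER lysis, β-galactosidase reporter activity was read as FDG fluorescence (ex 480/em 540) after 30 minutes.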
Potency means the concentration at half of the fitted maximal effect.

Potency, active:
CC1CCCCN1c1ncnc(N)c1[N+](=O)[O-] (stereo unspecified) 4.47 µM

Potency, inconclusive:
CC(=O)Nc1nc(-c2ccc3c(c2)CC(C)N3C(=O)C2CC2)c(C)s1 (stereo unspecified) 2.51 µM [activator, partial curve, poor fit]
CC(=O)Nc1ccc(NC(=O)COc2ccc(S(=O)(=O)NC(C)c3ccccc3)cc2)cc1 (stereo unspecified) 5.01 µM [activator, single point]
O=[N+]([O-])c1ccc(-c2nnc3n2CCCCC3)cc1 5.01 µM [activator, single point]
CCC/C(O)=C1\C(=O)CCCC1=NCCc1c(C)[nH]c2ccccc12 5.01 µM [activator, single point]
NS(=O)(=O)c1cccc(NC(=O)COc2ccc([N+](=O)[O-])cc2)c1 28.2 µM [activator, single point]
Cc1c(Cl)cccc1NC(=O)NN1CCN(C)CC1 12.6 µM [activator, single point]
CCOC(=O)c1c(C)[nH]c(C(=O)OCCOc2ccc(Cl)cc2)c1C 3.55 µM [activator, single point]
CC(C)(C)C(=O)Nc1cc2c3c(c1)CC(=O)N3CCC2 7.08 µM [activator, partial curve, poor fit]
COc1ccc(-c2nc(C)c(C(C)=O)n2O)cc1[N+](=O)[O-] 5.01 µM [activator, single point]
O=c1nc(N2CCCC2)nc(N2CCCC2)[nH]1 3.55 µM [activator, partial curve, poor fit]
COc1cc(NC(=O)c2ccccc2F)c(OC)cc1NC(=O)CN1CCCCC1 2.82 µM [activator, single point]
COc1ccc(OC)c(NC(=O)C2CCN(S(=O)(=O)c3ccc4c(c3)CC(C)N4C(C)=O)CC2)c1 (stereo unspecified) 2.82 µM [activator, partial curve, poor fit]
O=C(CSc1nnc(CNC(=O)c2c(F)cccc2Cl)o1)NCCc1ccccc1 12.6 µM [activator, single point]
COC(=O)[C@H](Cc1ccccc1)NC(=O)NC(C)CCc1ccccc1 (stereo partly specified) 11.2 µM [activator, single point]
CCn1c(CNc2ccc(F)cc2)nnc1SCC(=O)OC1CCCCC1 14.1 µM [activator, single point]
CC(=O)NCCC1CCN(C(=O)C2CCC(=O)N(C3CCCC3)C2)CC1 (stereo unspecified) 10 µM [activator, partial curve, poor fit]
CCOc1ccc(S(=O)(=O)N2CCCCC2)cc1NC(=O)C1COc2ccccc2O1 (stereo unspecified) 11.2 µM [activator, single point]
CN(n1cnc2ccccc2c1=O)S(C)(=O)=O 28.2 µM [activator, single point]
CN(CC(=O)Nc1ccc(F)cc1)C(=O)COC(=O)c1cc(Br)c(Br)s1 5.01 µM [activator, single point]
CC1CCCC(C)N1S(=O)(=O)c1ccc(S(=O)(=O)N2CCOCC2)cc1 (stereo unspecified) 28.2 µM [activator, single point]
CCOc1ccc(-c2c(C(=O)N/N=C/C3CCCCC3)nnn2-c2nonc2N)cc1 8.91 µM [activator, partial curve, poor fit]
CNC(=O)CCC(=O)Nc1ccc(C)cc1 5.01 µM [activator, single point]
Cc1cc(NC(=O)c2ccccc2Cl)c(C(C)C)cc1O 28.2 µM [activator, single point]
O=C(O)CCC(=O)N1CCc2cc(S(=O)(=O)NCCc3ccc(Cl)cc3)ccc21 22.4 µM [activator, single point]
COc1ccc(N2CCN(CC(O)COc3c(OC)cccc3OC)CC2)cc1 (stereo unspecified) 7.94 µM [activator, partial curve, poor fit]
CC(NC(=O)C(=O)Nc1nccs1)c1ccccc1 (stereo unspecified) 14.1 µM [activator, single point]
COc1ccccc1C(=O)Nc1ccc2c(c1)CN(C(=O)CSC)CC2 2.82 µM [activator, partial curve, poor fit]
COC(=O)c1cn(NC(=O)Cc2ccc(OC)c(OC)c2)c(=O)c2ccccc12 10 µM [activator, partial curve, poor fit]
O=C(O)CCn1ccc2cc(S(=O)(=O)N3CCCCCC3)ccc21 22.4 µM [activator, single point]

Arranged by length of the SMILES (smallest number first): 3 of the compounds above
Potency, inconclusive:
CC(=O)NCCC1CCN(C(=O)C2CCC(=O)N(C3CCCC3)C2)CC1 (stereo unspecified) 10 µM [activator, partial curve, poor fit]
COc1cc(NC(=O)c2ccccc2F)c(OC)cc1NC(=O)CN1CCCCC1 2.82 µM [activator, single point]
CCOc1ccc(-c2c(C(=O)N/N=C/C3CCCCC3)nnn2-c2nonc2N)cc1 8.91 µM [activator, partial curve, poor fit]

Following part.

Potency, inactive:
Cc1ccc(/C=C2\CCC(C3CCCC3)C2=O)cc1 (stereo unspecified)
CCN1CCN(C(=S)c2ccc(Br)cc2)CC1
O=C(O)c1cc2ncc(-c3[nH]ncc3[N+](=O)[O-])cn2n1
CN(C)Cc1ccccc1Cc1ccccc1
O=C(NCc1cccnc1)c1ccc(-c2ccccc2[N+](=O)[O-])o1
CCOc1ccccc1-c1nnc(SCC(=O)NC2CC3CCC2C3)n1CC (stereo unspecified)
COc1ccccc1C(=O)COC(=O)/C=C/c1ccccc1
S=c1nccc(-c2cccs2)[nH]1
Cn1cccc1/C=N/NC(=O)c1cc(-c2cccs2)nc2ccccc12
O=C1CCC(/C=C/c2ccccc2)=NN1Cc1ccccc1
CC(=O)Nc1cccc(C(=O)/C=C/c2ccc[nH]2)c1
O=[N+]([O-])c1nn(-c2ccccc2)n(O)c1=NCCc1ccccc1
O=C(Nc1ccc2snnc2c1)Nc1cccc2ccccc12

activation, inactive:
CC(C)c1nnc(NC(=O)CCC(=O)N2CCN(c3ccccn3)CC2)s1 -7.94% [at 7.66 µM]

activation, inconclusive:
O=C(NCCc1ccccc1)C(=O)NC1CCCCC1 66.1% [activator]
O=C(N/N=C/c1ccccc1Cl)c1[nH]c2ccc(Br)cc2c1-c1ccccc1 -77.5% [activator]
